# Experimental data: US20220324964A1 (GENERAL HOSPITAL, published 2022)
# Legend:
# [1] = target: T1, soluble TACI protein, fluorescently labeled (UniProt O14836 1-165, limits assumed, fluorescent label (not specified)); experiment: flow cytometry, fluorescent soluble TACI titrated 0.01 to 1000 nM on CAR T cells, MFI relative to untransduced cells (panel Amount of soluble TACI binding), N=3
# T1 construct: Labeled soluble protein used to stain CAR T cells in flow cytometry; also called sTACI; fluorescent TACI
# T1 sequence (looked up): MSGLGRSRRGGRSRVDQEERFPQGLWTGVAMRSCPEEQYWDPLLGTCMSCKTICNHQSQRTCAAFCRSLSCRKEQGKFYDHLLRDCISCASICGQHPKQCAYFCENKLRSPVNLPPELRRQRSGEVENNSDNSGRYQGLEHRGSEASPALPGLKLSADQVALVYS
# Text: (§1) The top two plots show binding of fluorescent BCMA and the bottom two plots show binding of fluorescent TACI to anti-TACI H-L CAR, anti-TACI L-H CAR, anti-BCMA, anti-TACI/anti-BCMA bispecific CAR, anti-BCMA/anti-TACI bispecific CAR, or untransduced T cells. The two left plots show the percentage of cells positive for BCMA or TACI. The two right plots show median fluorescence intensity for each cell population relative to untransduced cells.
# (§2) To test the efficacy of bispecific CAR T cells to bind their respective antigens, T cells were either left untransduced, or transduced with anti-TACI H-L CAR, anti-TACI L-H CAR, anti-BCMA CAR, anti-TACI/anti-BCMA bispecific CAR, or anti-BCMA/anti-TACI bispecific CAR, and were tested for their binding of soluble antigens.
# [2] = target: T1, soluble TACI protein, fluorescently …; experiment: flow cytometry, fluorescent soluble TACI titrated 0.01 to 1000 nM on CAR T cells, MFI relative to untransduced cells, N=3
# Method: (§3) FIGS. 25A-25B show measurements of binding of soluble TACI protein to untransduced T cells, and to T cells expressing anti-TACI H-L, anti-TACI L-H, or anti-BCMA. Cells were incubated with fluorescent soluble TACI protein at various concentrations, after which fluorescence of the cells was measured using flow cytometry, represented as percentage of cells positive for TACI (FIG. 25A) or as median fluorescence intensity (MFI) relative to signal measured in untransduced cells (FIG. 25B).
# (§4) To evaluate the expression, binding efficacy, and binding specificity of anti-TACI CARs, normal donor T cells were transduced with anti-TACI H-L, anti-TACI L-H, or anti-BCMA and transduction efficiency was evaluated by measuring the percentage of each T cell population positive for mCherry expression by flow cytometry. […] To compare binding efficiency and specificity of different CARs, T cells expressing each CAR construct were incubated with fluorescently-labeled soluble TACI and analyzed by flow cytometry.
# [3] = target: T1, soluble TACI protein, fluorescently …; experiment: flow cytometry, fluorescent soluble TACI titrated 0.01 to 1000 nM on CAR T cells, percentage TACI+, N=3
# Method: as §3, §4
# soluble BCMA, labeled = target: T2, soluble BCMA, labeled (UniProt Q02223 1-54, fluorescent label (not specified)); experiment: flow cytometry, labeled soluble BCMA (8 to 1000 ng) on CAR T cells, gated on live CAR T cells
# T2 construct: Labeled soluble protein used to stain CAR T cells in flow cytometry; also called sBCMA; fluorescent BCMA
# T2 sequence (looked up): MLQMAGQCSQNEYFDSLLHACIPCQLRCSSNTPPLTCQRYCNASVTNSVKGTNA
# Method: The anti-BCMA, anti-TACI (H/L), and anti-TACI (L/H) CAR T cells were evaluated for their capabilities to bind to soluble TACI (sTACI), soluble BCMA (sBCMA), and soluble APRIL (sAPRIL) was determined. T cells were washed 4 times in PBS 4% BSA, and incubated with labeled protein on ice at 4° C. for 40 min. After incubation, cells were washed twice with FACS buffer and flow cytometry was performed gating on live, CAR T cells to calculate protein binding. As evident in FIG. 12A, anti-TACI (L/H) CAR T cells have higher binding efficiency to soluble TACI than anti-TACI (H/L) CAR T cells.
# [4] = target: T1, soluble TACI protein, fluorescently …; experiment: flow cytometry, fluorescent soluble TACI titrated 0.01 to 1000 nM on CAR T cells, percentage TACI+ (panel Soluble binding of TACI), N=3
# Text: as §1, §2
binder,measurement,setting,value
"Anti-TACI (L/H) CAR expressed on T cells (other, Chimeric antigen receptor: anti-TACI scFv VL-(G4S)4-VH, CD8 hinge/TM, 4-1BB, CD3zeta; The vector also expresses mCherry; also called Anti-TACI CAR (L-H)) DIVLTQSPASLAVSLGQRATISCRASESVDYYGMSLMNWFQQKPGQPPKLVIYAASNQGSGVPARFSGSGSGTDFRLNIHPLEEDDTGMYFCQQSKEAPPTFGGGTKLEIKGGGGSGGGGSGGGGSGGGGSEVQLQQSGPELVKPGASVKISCKTSGYTFTESTIHWVKQSHGKSLEWIGGISPNNGGSPFNQKFKGKATLTVDKSSSTVYMELRSLSSEDSAVYYCAKWVRGAMDFWGQGTSVTVSSTTTPAPRPPTPAPTIASQPLSLRPEACRPAAGGAVHTRGLDFACDIYIWAPLAGTCGVLLLSLVITLYCKRGRKKLLYIFKQPFMRPVQTTQEEDGCSCRFPEEEEGGCELRVKFSRSADAPAYQQGQNQLYNELNLGRREEYDVLDKRRGRDPEMGGKPRRKNPQEGLYNELQKDKMAEAYSEIGMKGERRRGKGHDGLYQGLSTATKDTYDALHMQALPPR",EC50 (read off the curve),[1],~10 nM
same,EC50 (read off the curve),[2],~10 nM
same,EC50 (read off the curve),[3],~2 nM
same,binding result,"soluble BCMA, labeled",no binding (tested: 1000 ng)
same,EC50 (read off the curve),[4],~2 nM
